From a melanoma drug combination screen (doi:10.1371/journal.pone.0140310); values rounded.

All values are for the listed drug together with ZM336372 (10 µM): Cc1ccc(NC(=O)c2cccc(N(C)C)c2)cc1NC(=O)c1ccc(O)cc1

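Human melanoma cell lines in 1,536-well plates were treated with two drugs together for 72 h, then fixed, stained and imaged. Each value is the cleaved-PARP-positive fraction of nuclei relative to DMSO-treated wells, in %, so that 100 equals the control and higher values mean more apoptosis. Every drug was used at one fixed concentration, the higher of two screened. No replicate spread is given; individual values may be noisy. Basal and induced levels differ widely between cell lines.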 This is part of the screen, not chosen by result. A dash means that no value is listed here.

Partner	WM1745	C32	SK-MEL-5	WM115	RPMI-7951	COLO 792	MEL-HO	501mel	LOX IMVI	LB2518-MEL	IPC-298	WM1716	COLO 829
Nc1ncn([C@H]2C[C@H](O)[C@@H](CO)O2)c(=O)n1 at 0.5 µM	88.0	115	197	126	223	82.8	80.4	-	234	704	96.5	52.7	161
Cn1c(Nc2ccc(C(F)(F)F)cc2)nc2cc(Oc3ccnc(-c4ncc(C(F)(F)F)[nH]4)c3)ccc21 at 0.4 µM	141	1210	622	828	167	477	106	-	146	132	275	187	184
O=c1[nH]nc(Sc2ncc([N+](=O)[O-])s2)n1-c1ccc2c(c1)OCCO2 at 1 µM	106	147	377	59.0	203	88.7	58.8	-	111	58.4	58.2	73.1	85.3
Cn1nnc2c(C(N)=O)ncn2c1=O at 10 µM	106	195	82.3	76.0	195	151	70.8	-	70.6	58.7	34.9	703	128
Cc1cc([N+](=O)[O-])ccc1NS(=O)(=O)c1cc(Cl)ccc1Cl at 5 µM	114	98.2	81.2	130	128	126	109	117	108	58.1	93.2	138	264
C[C@@H](N)c1ccc(C(=O)Nc2ccnc3[nH]ccc23)cc1 at 2 µM	386	186	258	186	57.4	197	93.4	-	124	191	80.3	183	32.6
O=C(Oc1ccc([N+](=O)[O-])cc1)N1CCC(C(O)(c2ccc3c(c2)OCO3)c2ccc3c(c2)OCO3)CC1 at 5 µM	123	94.3	107	92.5	115	54.8	149	147	134	51.5	174	162	44.2
N#CC[C@H](C1CCCC1)n1cc(-c2ncnc3[nH]ccc23)cn1 at 5 µM	93.6	123	198	27.3	158	236	79.8	-	65.1	85.7	82.1	120	206
O=S(=O)(c1ccccc1)N(CC(F)(F)F)c1ccc(C(O)(C(F)(F)F)C(F)(F)F)cc1 at 7 µM	296	105	117	68.8	88.8	21.9	57.3	150	88.7	61.7	81.4	35.4	126
Nc1cccc2c1CN(C1CCC(=O)NC1=O)C2=O (stereo not given) at 5 µM	101	44.2	75.3	94.6	20.8	24.6	77.5	-	51.4	47.6	173	123	39.7
C[C@@H](Oc1cc(-c2cnn(C3CCNCC3)c2)cnc1N)c1c(Cl)ccc(F)c1Cl at 1 µM	176	265	280	148	62.7	127	37.6	-	62.8	74.3	84.6	137	218
Nc1ccn([C@@H]2O[C@H](CO)[C@@H](O)C2(F)F)c(=O)n1 at 0.002 µM	151	48.6	118	71.7	159	129	206	-	161	105	125	61.2	331
COCC[n+]1c2c(n(Cc3cnccn3)c1C)C(=O)c1ccccc1C2=O at 0.002 µM	87.1	115	3530	938	388	140	143	-	297	104	191	289	121
CCCCCCCCCCCC1=C(O)C(=O)C=C(O)C1=O at 6 µM	153	98.1	62.5	109	84.3	87.0	58.7	88.7	160	78.8	47.0	141	49.1
C[C@]1(c2nc3c(C(N)=O)cccc3[nH]2)CCCN1 at 7 µM	417	46.7	85.1	170	74.8	98.8	85.7	-	27.7	116	39.9	66.6	122
Clc1ccc(Nc2nnc(Cc3ccncc3)c3ccccc23)cc1 at 10 µM	204	177	300	196	122	326	122	-	94.5	113	466	155	65.2
Cc1cc(SCc2sc(-c3ccc(C(F)(F)F)c(F)c3)nc2C)ccc1OCC(=O)O at 10 µM	136	78.3	228	107	42.0	68.6	57.1	393	74.4	76.8	52.0	104	56.5
COc1cc([C@@H]2c3cc4c(cc3[C@@H](O[C@@H]3O[C@@H]5CO[C@@H](C)O[C@H]5[C@H](O)[C@H]3O)[C@H]3COC(=O)[C@H]23)OCO4)cc(OC)c1O at 0.1 µM	86.6	33.2	103	79.9	153	63.6	104	-	113	103	116	376	121
CO[C@@H]1[C@H](N(C)C(=O)c2ccccc2)C[C@H]2O[C@]1(C)n1c3ccccc3c3c4c(c5c6ccccc6n2c5c31)C(=O)NC4 at 0.4 µM	312	551	159	150	349	153	87.7	-	52.5	291	114	654	222
C=C(c1ccc(C(=O)O)cc1)c1cc2c(cc1C)C(C)(C)CCC2(C)C at 10 µM	101	162	41.2	53.2	192	147	161	-	78.3	95.6	118	152	361
CC1(C)NC(=O)N(c2ccc([N+](=O)[O-])c(C(F)(F)F)c2)C1=O at 5 µM	102	245	70.5	75.8	154	130	144	-	41.3	194	37.2	58.0	98.1